Laboratory results published in the supplement of paper PMC10849652.
The other results are listed elsewhere or left out.

Amino acid sequences for entries named in this document (tags omitted). A change or cut given only in a name is not applied to a line headed by its entry.
UniProt Q9H910: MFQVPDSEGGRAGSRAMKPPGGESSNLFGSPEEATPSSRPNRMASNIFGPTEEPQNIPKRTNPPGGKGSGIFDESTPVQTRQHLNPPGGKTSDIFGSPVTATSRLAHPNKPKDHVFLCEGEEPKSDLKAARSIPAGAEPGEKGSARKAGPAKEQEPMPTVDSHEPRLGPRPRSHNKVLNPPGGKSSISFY
UniProt P17535: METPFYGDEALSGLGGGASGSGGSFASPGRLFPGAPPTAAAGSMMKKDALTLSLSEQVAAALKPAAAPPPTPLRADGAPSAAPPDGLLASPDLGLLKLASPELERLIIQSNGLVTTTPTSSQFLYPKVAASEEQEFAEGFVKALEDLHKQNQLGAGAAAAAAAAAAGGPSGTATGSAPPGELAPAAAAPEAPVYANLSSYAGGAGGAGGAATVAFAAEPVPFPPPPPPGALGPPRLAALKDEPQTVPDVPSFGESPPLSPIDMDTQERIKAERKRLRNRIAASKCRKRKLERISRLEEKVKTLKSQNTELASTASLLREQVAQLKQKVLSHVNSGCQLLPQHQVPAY
UniProt P57682: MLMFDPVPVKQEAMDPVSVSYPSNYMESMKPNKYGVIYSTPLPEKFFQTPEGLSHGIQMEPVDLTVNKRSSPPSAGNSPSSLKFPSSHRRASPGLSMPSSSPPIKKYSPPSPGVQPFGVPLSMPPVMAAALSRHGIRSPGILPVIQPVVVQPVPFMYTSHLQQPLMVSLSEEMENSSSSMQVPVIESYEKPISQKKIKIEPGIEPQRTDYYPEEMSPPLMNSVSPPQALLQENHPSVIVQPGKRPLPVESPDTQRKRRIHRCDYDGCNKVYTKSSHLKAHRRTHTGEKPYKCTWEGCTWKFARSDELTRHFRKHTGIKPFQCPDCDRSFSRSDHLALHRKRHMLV
UniProt Q99661: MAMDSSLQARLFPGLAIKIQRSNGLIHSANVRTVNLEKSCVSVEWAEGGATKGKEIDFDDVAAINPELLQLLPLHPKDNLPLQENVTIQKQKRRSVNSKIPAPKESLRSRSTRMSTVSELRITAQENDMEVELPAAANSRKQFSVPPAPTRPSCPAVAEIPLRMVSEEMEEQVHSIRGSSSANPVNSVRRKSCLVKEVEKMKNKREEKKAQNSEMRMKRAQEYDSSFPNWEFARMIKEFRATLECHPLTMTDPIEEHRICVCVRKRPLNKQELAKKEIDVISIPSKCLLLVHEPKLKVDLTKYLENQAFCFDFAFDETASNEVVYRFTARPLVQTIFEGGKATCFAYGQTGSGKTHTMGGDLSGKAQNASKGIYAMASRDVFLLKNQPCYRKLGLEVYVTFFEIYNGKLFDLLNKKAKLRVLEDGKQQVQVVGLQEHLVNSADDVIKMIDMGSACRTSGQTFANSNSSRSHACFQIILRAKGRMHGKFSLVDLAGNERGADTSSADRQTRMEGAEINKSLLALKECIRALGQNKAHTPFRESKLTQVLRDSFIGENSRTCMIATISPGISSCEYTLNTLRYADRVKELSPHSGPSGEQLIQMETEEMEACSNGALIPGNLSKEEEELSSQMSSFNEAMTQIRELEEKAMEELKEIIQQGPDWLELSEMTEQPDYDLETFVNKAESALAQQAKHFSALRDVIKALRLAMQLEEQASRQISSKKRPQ
UniProt Q07666, whole entry, looked up: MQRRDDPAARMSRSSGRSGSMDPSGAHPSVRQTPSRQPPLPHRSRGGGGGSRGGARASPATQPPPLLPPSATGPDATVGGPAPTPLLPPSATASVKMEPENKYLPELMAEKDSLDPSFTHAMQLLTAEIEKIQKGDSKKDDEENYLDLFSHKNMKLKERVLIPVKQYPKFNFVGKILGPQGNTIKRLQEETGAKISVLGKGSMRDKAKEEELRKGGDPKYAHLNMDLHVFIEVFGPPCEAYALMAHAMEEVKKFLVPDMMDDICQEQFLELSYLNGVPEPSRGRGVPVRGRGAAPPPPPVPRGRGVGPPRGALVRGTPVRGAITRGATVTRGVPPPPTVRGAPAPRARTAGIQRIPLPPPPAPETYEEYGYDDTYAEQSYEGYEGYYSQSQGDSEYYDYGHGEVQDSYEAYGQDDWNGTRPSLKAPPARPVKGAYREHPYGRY
UniProt P52333: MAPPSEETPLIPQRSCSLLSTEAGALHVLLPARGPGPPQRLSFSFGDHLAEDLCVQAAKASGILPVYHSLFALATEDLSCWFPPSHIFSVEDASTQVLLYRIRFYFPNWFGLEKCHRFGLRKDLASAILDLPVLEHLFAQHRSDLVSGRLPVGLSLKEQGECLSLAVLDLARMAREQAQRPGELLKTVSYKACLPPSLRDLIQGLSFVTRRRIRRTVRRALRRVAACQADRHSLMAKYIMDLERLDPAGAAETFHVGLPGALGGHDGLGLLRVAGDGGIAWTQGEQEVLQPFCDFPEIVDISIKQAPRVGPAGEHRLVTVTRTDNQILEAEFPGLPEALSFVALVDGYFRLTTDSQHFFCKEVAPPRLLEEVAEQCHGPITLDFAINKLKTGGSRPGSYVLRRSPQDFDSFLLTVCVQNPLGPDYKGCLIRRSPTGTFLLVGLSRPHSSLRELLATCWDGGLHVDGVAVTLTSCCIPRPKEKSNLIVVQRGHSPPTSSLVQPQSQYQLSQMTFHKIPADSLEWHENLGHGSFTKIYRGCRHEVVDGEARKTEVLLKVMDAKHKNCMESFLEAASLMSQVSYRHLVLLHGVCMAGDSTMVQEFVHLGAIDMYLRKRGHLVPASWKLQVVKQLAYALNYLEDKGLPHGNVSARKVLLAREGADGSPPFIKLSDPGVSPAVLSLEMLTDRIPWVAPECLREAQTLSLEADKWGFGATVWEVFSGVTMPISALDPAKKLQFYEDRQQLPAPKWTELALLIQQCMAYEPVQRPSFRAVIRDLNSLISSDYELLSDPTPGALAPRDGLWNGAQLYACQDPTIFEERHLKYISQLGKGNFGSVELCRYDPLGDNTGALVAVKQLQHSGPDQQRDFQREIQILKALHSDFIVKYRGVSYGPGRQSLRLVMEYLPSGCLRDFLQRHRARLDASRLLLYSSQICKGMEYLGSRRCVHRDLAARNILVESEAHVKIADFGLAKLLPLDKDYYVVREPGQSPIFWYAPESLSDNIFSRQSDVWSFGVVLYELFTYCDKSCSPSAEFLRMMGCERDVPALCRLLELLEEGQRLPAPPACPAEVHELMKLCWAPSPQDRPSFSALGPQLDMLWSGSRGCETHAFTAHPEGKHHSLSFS
UniProt P33947: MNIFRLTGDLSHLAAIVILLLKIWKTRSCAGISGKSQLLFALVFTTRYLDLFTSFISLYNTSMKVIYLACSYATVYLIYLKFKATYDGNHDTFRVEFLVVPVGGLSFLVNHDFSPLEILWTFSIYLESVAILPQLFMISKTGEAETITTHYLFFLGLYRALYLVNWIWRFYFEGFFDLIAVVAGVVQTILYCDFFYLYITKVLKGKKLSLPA
UniProt Q8NFY9: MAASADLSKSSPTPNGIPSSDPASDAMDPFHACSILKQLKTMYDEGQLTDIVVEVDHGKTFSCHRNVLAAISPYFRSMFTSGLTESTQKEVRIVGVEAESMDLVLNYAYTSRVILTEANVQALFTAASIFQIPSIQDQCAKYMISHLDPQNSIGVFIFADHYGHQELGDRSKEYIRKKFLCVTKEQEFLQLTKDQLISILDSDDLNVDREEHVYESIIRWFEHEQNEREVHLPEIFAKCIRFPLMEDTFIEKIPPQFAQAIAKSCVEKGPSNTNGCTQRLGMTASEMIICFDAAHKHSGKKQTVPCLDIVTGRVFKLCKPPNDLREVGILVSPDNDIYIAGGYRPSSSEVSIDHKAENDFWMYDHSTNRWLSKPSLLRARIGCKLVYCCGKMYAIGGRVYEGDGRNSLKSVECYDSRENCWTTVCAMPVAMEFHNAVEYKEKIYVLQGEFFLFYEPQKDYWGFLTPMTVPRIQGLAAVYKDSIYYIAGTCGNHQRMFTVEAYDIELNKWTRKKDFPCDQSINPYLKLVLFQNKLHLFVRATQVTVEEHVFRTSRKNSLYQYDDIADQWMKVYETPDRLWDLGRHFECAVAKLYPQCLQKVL
UniProt Q92845: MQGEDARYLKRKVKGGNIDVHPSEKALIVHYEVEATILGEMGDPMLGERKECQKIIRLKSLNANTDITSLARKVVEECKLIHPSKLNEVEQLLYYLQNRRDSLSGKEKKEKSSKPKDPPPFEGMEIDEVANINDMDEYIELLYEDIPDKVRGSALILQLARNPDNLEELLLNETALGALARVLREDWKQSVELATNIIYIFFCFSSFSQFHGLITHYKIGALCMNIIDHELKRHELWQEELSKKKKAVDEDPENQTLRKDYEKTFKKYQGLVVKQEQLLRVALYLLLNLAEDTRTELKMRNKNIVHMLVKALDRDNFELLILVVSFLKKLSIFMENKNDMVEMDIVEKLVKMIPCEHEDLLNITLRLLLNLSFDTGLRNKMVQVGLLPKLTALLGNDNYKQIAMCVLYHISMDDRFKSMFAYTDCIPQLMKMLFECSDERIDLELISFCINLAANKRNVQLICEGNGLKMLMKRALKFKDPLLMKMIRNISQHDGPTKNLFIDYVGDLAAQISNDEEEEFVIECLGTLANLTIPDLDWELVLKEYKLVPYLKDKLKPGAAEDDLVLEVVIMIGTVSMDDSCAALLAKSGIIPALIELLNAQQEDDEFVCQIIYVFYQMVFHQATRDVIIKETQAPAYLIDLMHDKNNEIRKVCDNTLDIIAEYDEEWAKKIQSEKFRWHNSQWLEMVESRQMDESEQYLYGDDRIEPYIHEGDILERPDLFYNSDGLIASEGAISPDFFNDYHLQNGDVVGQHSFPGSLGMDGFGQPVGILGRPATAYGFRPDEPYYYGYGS
UniProt Q8IZA0: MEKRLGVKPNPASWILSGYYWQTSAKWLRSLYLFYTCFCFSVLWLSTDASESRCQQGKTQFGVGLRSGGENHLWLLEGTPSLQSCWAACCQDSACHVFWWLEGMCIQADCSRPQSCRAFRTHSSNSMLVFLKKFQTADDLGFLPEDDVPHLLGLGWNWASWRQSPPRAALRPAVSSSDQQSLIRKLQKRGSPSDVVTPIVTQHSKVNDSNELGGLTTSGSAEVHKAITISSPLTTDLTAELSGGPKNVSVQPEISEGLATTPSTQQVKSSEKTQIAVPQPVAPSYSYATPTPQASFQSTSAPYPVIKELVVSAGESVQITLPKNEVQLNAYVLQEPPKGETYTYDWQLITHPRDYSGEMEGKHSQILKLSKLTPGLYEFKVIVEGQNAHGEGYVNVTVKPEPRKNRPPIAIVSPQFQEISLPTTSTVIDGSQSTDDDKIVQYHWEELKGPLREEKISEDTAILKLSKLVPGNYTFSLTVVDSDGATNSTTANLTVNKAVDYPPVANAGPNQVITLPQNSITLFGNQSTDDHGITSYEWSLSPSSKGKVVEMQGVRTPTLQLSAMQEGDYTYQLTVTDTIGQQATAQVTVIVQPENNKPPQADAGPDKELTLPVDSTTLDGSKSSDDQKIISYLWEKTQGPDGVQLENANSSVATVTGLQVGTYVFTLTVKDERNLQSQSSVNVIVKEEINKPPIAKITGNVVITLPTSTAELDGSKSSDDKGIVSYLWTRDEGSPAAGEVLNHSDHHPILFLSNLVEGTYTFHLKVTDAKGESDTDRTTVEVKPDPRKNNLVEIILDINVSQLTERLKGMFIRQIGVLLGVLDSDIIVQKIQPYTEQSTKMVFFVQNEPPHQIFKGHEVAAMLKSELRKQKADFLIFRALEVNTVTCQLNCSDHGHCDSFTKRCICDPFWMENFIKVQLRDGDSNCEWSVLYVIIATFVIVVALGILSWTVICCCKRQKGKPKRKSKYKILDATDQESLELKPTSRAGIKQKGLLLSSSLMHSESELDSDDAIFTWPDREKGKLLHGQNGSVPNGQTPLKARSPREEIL
UniProt O00505, whole entry, looked up: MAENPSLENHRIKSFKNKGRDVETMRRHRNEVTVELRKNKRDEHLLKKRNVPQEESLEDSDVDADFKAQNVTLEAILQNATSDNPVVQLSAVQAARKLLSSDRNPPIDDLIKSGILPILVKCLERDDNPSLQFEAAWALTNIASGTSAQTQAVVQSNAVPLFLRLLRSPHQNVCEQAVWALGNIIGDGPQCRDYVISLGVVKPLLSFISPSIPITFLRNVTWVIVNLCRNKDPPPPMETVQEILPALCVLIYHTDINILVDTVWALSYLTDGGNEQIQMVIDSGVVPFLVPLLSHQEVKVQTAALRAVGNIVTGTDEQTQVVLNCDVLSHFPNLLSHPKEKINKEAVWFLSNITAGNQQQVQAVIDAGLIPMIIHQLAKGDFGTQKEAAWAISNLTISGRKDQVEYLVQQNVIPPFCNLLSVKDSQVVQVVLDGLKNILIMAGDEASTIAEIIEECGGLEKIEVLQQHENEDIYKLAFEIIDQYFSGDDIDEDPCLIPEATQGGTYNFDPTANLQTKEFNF
UniProt O43731: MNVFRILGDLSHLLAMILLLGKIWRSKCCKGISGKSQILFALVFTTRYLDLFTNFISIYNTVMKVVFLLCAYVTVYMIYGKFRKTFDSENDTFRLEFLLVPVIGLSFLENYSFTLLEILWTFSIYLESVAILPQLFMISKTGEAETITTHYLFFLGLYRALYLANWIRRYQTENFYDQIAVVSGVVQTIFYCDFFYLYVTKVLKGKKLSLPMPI

What was measured:
Assay in all cases: log2 fold change, soluble protein after heating vs DMSO (PISA); higher = thermal stabilisation; K562 cells, 10 uM, 30 min; active = over 0.2 and 3.5 SD of the protein, either way, in both replicates (recomputed)
[1] = compound: Cc1ccc(NC(=O)c2ccc(CN3CC[C@H](N(C)C)C3)c(C(F)(F)F)c2)cc1Nc1nccc(-c2cncnc2)n1 [bafetinib]
Method in brief: (§1)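 Thermal stability values are relative to control samples and come from duplicates. They are expressed as log2 fold changes. For measurement, K562 cells (2×10^6 cells/mL) received 10 μM compound for 30 min, and aliquots were heated for 3 min over 48°C-58°C, pooled, and extracted at 4°C in PBS with 0.5% NP-40. Soluble protein, the supernatant after 21,000xg for 90 min, was quantified by TMTpro 16plex LC-MS/MS with equalised channel sums.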

[2] = compound: Cc1cccc(CC(=O)N2CCc3c2ccc(-c2cn(C)c4ncnc(N)c24)c3F)n1
Method in brief: as §1

[3] = compound: Cc1cn(-c2cc(NC(=O)c3ccc(C)c(Nc4nccc(-c5cccnc5)n4)c3)cc(C(F)(F)F)c2)cn1 [nilotinib]
Method in brief: as §1

[4] = compound: Cc1nc(Nc2n[nH]c3c2CN(C(=O)N[C@H](CN(C)C)c2ccccc2)C3(C)C)c2sccc2n1
Method in brief: as §1

[5] = compound: Cc1nc(Nc2ncc(C(=O)Nc3c(C)cccc3Cl)s2)cc(N2CCN(CCO)CC2)n1 [dasatinib]
Method in brief: as §1

[6] = compound: Cc1ncc(-c2ccnc(Nc3ccc(S(C)(=O)=O)cc3)n2)n1C(C)C
Method in brief: as §1

[7] = compound: Cn1cc(-c2ccc3c(c2)CCN3C(=O)Cc2cccc(C(F)(F)F)c2)c2c(N)ncnc21
Method in brief: as §1

[8] = compound: Cn1cc(-c2ccc3nnc(C(F)(F)c4ccc5ncccc5c4)n3n2)cn1
Method in brief: as §1

[9] = compound: Cn1cncc1[C@@](N)(c1ccc(Cl)cc1)c1ccc2c(c1)c(-c1cccc(Cl)c1)cc(=O)n2C [tipifarnib]
Method in brief: as §1

[10] = compound: FC(F)(F)c1ccc(/C=C/c2nc(COc3ccc(CCCCn4ccnn4)cc3)co2)cc1 [mubritinib]
Method in brief: as §1

Row | Target | log2 fold change [1] | log2 fold change [2] | log2 fold change [3] | log2 fold change [4] | log2 fold change [5] | log2 fold change [6] | log2 fold change [7] | log2 fold change [8] | log2 fold change [9] | log2 fold change [10]
1 | JPT2 isoform 3 (UniProt Q9H910) | inactive: -0.007 | inactive: -0.04 | inactive: 0.029 | inactive: 0.009 | inactive: 0.04 | inactive: -0.008 | inactive: 0.006 | inactive: -0.046 | inactive: 0.039 | inactive: 0.024
2 | JUND (UniProt P17535) | inactive: -0.001 | inactive: -0.025 | inactive: -0.043 | inactive: 0.04 | inactive: 0.027 | inactive: 0.052 | inactive: -0.039 | inactive: 0.078 | inactive: 0.06 | inactive: 0.005
3 | KLF3 (UniProt P57682) | inactive: -0.036 | inactive: 0.048 | inactive: -0.039 | inactive: 0.013 | inactive: 0.03 | inactive: -0.034 | inactive: 0.078 | inactive: 0.047 | inactive: 0.035 | inactive: 0.035
4 | KDM3B (UniProt Q7LBC6) | inactive: -0.005 | inactive: 0.038 | inactive: -0.009 | inactive: -0.098 | inactive: -0.136 | inactive: 0.042 | inactive: -0.032 | inactive: 0.006 | inactive: 0.018 | inactive: 0.002
5 | KIAA1324L (UniProt A8MWY0) | inactive: -0.099 | inactive: 0.022 | inactive: 0.042 | inactive: -0.031 | inactive: 0.025 | inactive: -0.003 | inactive: 0.022 | inactive: 0.029 | inactive: 0.047 | inactive: 0.091
6 | KIF2C (UniProt Q99661) | inactive: 0.1 | inactive: 0.122 | inactive: -0.082 | inactive: -0.054 | inactive: -0.15 | inactive: 0.032 | inactive: 0.053 | inactive: 0.039 | inactive: -0.103 | inactive: 0.081
7 | KHDRBS1 (UniProt Q07666) | inactive: 0.041 | inactive: 0.007 | inactive: 0.035 | inactive: 0.02 | inactive: 0.012 | inactive: 0.07 | inactive: 0.025 | inactive: -0.024 | inactive: 0.017 | inactive: 0.021
8 | JAK3 (UniProt P52333) | inactive: -0.013 | inactive: -0.056 | inactive: -0.01 | inactive: 0.082 | inactive: -0.028 | inactive: -0.02 | inactive: -0.019 | inactive: 0.044 | inactive: 0.052 | inactive: -0.061
9 | KDELR2 (UniProt P33947) | inactive: -0.088 | inactive: 0.072 | inactive: -0.069 | inactive: 0.035 | inactive: 0.097 | inactive: -0.082 | inactive: 0.194 | inactive: 0.264 | inactive: 0.125 | inactive: -0.049
10 | KDM8 isoform 3 (UniProt Q8N371) | inactive: -0.016 | inactive: 0.012 | inactive: -0.007 | inactive: -0.023 | inactive: -0.035 | inactive: -0.028 | inactive: 0.035 | inactive: -0.005 | inactive: -0.015 | inactive: 0.029
11 | IWS1 (UniProt Q96ST2) | inactive: 0.018 | inactive: -0.022 | inactive: -0.024 | inactive: 0.092 | inactive: -0.054 | active: 0.311 | inactive: -0.013 | inactive: 0.022 | inactive: -0.021 | inactive: 0.035
12 | KCTD15 (UniProt Q96SI1) | inactive: -0.037 | inactive: -0.055 | inactive: 0.012 | inactive: -0.043 | inactive: 0.039 | inactive: -0.023 | inactive: -0.002 | inactive: 0.091 | inactive: -0.022 | inactive: 0.054
13 | KBTBD8 (UniProt Q8NFY9) | inactive: -0.143 | inactive: 0.037 | inactive: -0.048 | inactive: 0.011 | inactive: -0.026 | inactive: -0.048 | inactive: 0.068 | inactive: -0.038 | inactive: -0.04 | inactive: 0.027
14 | KSR1 (UniProt Q8IVT5) | inactive: 0.035 | inactive: -0.052 | inactive: -0.052 | inactive: -0.303 | inactive: -0.228 | inactive: -0.021 | inactive: 0.003 | inactive: -0.129 | inactive: -0.086 | inactive: -0.233
15 | KLHDC4 (UniProt Q8TBB5) | inactive: 0.012 | inactive: -0.018 | inactive: 0 | inactive: -0.067 | inactive: 0.107 | inactive: 0.156 | inactive: -0.175 | inactive: -0.23 | inactive: 0.106 | inactive: -0.333
16 | KCTD10 (UniProt Q9H3F6) | inactive: -0.059 | inactive: -0.036 | inactive: 0.002 | inactive: -0.088 | inactive: 0.056 | inactive: 0.074 | inactive: 0.012 | inactive: 0.153 | inactive: 0.058 | inactive: -0.009
17 | KIDINS220 (UniProt Q9ULH0) | inactive: 0.007 | inactive: -0.023 | inactive: 0.017 | inactive: -0.026 | inactive: 0.005 | inactive: 0.007 | inactive: 0.016 | inactive: -0.048 | inactive: 0.052 | inactive: 0.012
18 | KCTD2 (UniProt Q14681) | inactive: -0.23 | active: -0.845 | inactive: -0.144 | inactive: 0.012 | inactive: 0.146 | inactive: -0.076 | inactive: -0.102 | inactive: -0.015 | inactive: 0.308 | inactive: 0.113
19 | KDM1A isoform 2 (UniProt O60341) | inactive: 0.007 | inactive: 0.014 | inactive: -0.078 | inactive: -0.059 | inactive: -0.07 | inactive: -0.001 | inactive: -0.002 | inactive: -0.011 | inactive: -0.108 | inactive: 0.095
20 | KIFAP3 (UniProt Q92845) | inactive: 0.134 |  | inactive: -0.228 | inactive: 0.075 |  | inactive: 0.106 |  |  |  | 
21 | KIAA0319L (UniProt Q8IZA0) | inactive: -0.052 | inactive: -0.049 | inactive: 0.009 | inactive: 0.008 | inactive: 0.012 | inactive: -0.003 | inactive: 0.012 | inactive: 0.032 | inactive: 0.029 | inactive: 0.02
22 | KLHDC8B (UniProt Q8IXV7) | inactive: -0.102 | inactive: 0.1 |  |  | inactive: 0.04 |  | inactive: -0.025 | inactive: -0.282 |  | inactive: 0.035
23 | KAT6B (UniProt Q8WYB5) | inactive: -0.02 | inactive: -0.026 | inactive: -0.083 | inactive: 0.034 |  | inactive: -0.042 |  | inactive: -0.01 | inactive: 0.112 | inactive: 0.03
24 | KPNA3 (UniProt O00505) | inactive: -0.094 | inactive: 0.093 | inactive: -0.044 | inactive: -0.097 | inactive: -0.189 | inactive: -0.113 | inactive: 0.038 | inactive: -0.016 | inactive: -0.011 | inactive: 0.109
25 | KIF15 (UniProt Q9NS87) | inactive: 0.158 | inactive: 0.037 |  |  | inactive: 0.01 |  | inactive: -0.213 | inactive: -0.086 |  | inactive: -0.088
26 | KDELR3 (UniProt O43731) | inactive: -0.145 |  | inactive: 0.055 | inactive: 0.027 | inactive: 0.309 | inactive: 0.08 |  |  |  | inactive: 0.202

Whole records, quoted from the list. Order of values: log2 fold change [1]	log2 fold change [2]	log2 fold change [3]	log2 fold change [4]	log2 fold change [5]	log2 fold change [6]	log2 fold change [7]	log2 fold change [8]	log2 fold change [9]	log2 fold change [10]
KIF2C (UniProt Q99661) as listed: inactive: 0.1	inactive: 0.122	inactive: -0.082	inactive: -0.054	inactive: -0.15	inactive: 0.032	inactive: 0.053	inactive: 0.039	inactive: -0.103	inactive: 0.081
KIAA0319L (UniProt Q8IZA0) as listed: inactive: -0.052	inactive: -0.049	inactive: 0.009	inactive: 0.008	inactive: 0.012	inactive: -0.003	inactive: 0.012	inactive: 0.032	inactive: 0.029	inactive: 0.02
